Reference: US20240238291A1, “COMBINATIONS FOR TREATMENT OF CANCER” (SYNDAX PHARMACEUTICALS, INC., priority 2021, published 2024)
For at least one compound, name, drawing or mass did not settle the structure.

Legend:
[1] = system: NPM1c/FLT3-ITD/TKD patient-derived xenograft (PDX) model (DFAM-16835); experiment: NPM1c/FLT3-ITD/TKD PDX model, Compound (I) with venetoclax (Example 1); assay type: in vivo, NSG mice
Protocol: The anti-leukemic activity and potential synergism and mechanisms of the combination of the menin-MLL1 inhibitor Compound (I), an equipotent surrogate of Compound (II), and venetoclax were investigated in vivo in an NPM1c/FLT3-ITD/TKD patient-derived xenograft (PDX) model.
Mouse experiments were performed following institutional animal care and use committee approved protocols. Mouse survival was estimated using the Kaplan-Meier method and survival data were analyzed using the log-rank test. Differences between groups were determined using the Student t-text; P values≤0.05 were considered statistically significant. The PDX (DFAM-16835) was obtained from the PRoXe depository. The engrafted NSG mice were treated with 0.05 or 0.1% Compound (I) (SNDX)-spiked chow, venetoclax (VEN), or 0.1% Compound (I) plus venetoclax (FIG. 1A).
(§1) The PDX cell engrafted NSG mice were treated with 0.05 or 0.1% Compound (I)-spiked chow, venetoclax (50 mg/kg), or 0.1% Compound (I) plus venetoclax for one month. Engraftment and disease progression were assessed by flow cytometric measurement of human CD45^+ cells in mouse peripheral blood. Survival was monitored. The treatment effects on various leukemia cell populations and their protein expression levels were determined by CyTOF mass cytometry.

[2] = system: BM leukemia cells and leukemia stem/progenitor cells of NPM1c/FLT3-ITD/TKD PDX; experiment: CyTOF analysis of BM leukemia cells at end of treatment (Example 1); assay type: in vivo, NSG mice
Protocol: As shown in FIGS. 2A-2E, menin and Bcl-2 inhibition targeted leukemia cells and stem/progenitor cells and modulated Bcl-2 protein levels by CyTOF analysis in BM cells at the end of the treatment. Cell populations were PhenoGraph clustered based on cell surface markers. […] The CD34^+CD38^+ and CD34^+CD38^− cell numbers were extremely low in the combination-treated group.
as §1

`CC1(C)CCC(CN2CCN(c3ccc(C(=O)NS(=O)(=O)c4ccc(NCC5CCOCC5)c([N+](=O)[O-])c4)c(Oc4cnc5[nH]ccc5c4)c3)CC2)=C(c2ccc(Cl)cc2)C1` [venetoclax, reference compound] was tested, and the “splenic huCD45+ cells” value ([1]; end of treatment) was “lacked activity in the spleen”, the “BM leukemia cells (flow cytometry)” value ([1]; end of treatment, Compound (I) 0.05% or 0.1%, venetoclax, or 0.1% Compound I plus venetoclax) was “showed no activity” and the “circulating blasts (huCD45+ cells, flow cytometry)” value ([1]; peripheral blood at 2 weeks, Compound (I) 0.05 or 0.1% chow, venetoclax, or 0.1% Compound (I) plus venetoclax) was “significantly decreased circulating blasts”. The circulating leukemia cells ([1]; peripheral blood at 4 weeks) was “ineffective”, the “CD34+CD38+/CD34+CD38+CD123+/CD34+CD38+CD123+Tim3 cells” value ([2]; BM, end of treatment) was “partial activity” and the bulk leukemia cells ([2]; BM, end of treatment, Compound (I) 0.05% and more so 0.1%) was “no activity on bulk leukemia”. For the same molecule, the “huCD45+ cells in BM by CyTOF” value ([2]; end of treatment (FIG. 2A)) was “only minimal effects on leukemia cells”.
